{
  "source": "PubChem BioAssay AID292",
  "about": "(DTP/NCI, 2004)",
  "system": "B6C3F1 mice, ip Sarcoma M5076, median survival T/C",
  "test": "NCI In Vivo Anticancer Drug Screen. Data for tumor model Sarcoma M5076 (intraperitoneal) in B6C3F1 mice",
  "conditions": "T/C endpoint: median survival time, schedule: Q04DX004 (ip), vehicle: saline, higher T/C = longer survival",
  "method": "The antitumor activity of compounds was measured in mice bearing transplantable tumors. Survival or tumor size were measured and the results are expressed as the measurement made in the treated group (T) divided by the measurement made in the vehicle treated control group (C). The tumor model used in this assay is Sarcoma M5076 (intraperitoneal) in B6C3F1 mice",
  "note": "The list does not hold the whole screen: it covers a few groups of compounds. Not every dose and run of a compound is shown. T/C: endpoint of the treated group in % of that of the vehicle group. Where survival is the endpoint, the PubChem record calls one and a half times the control and up active, and a quarter to a half above the control has no call in these data; cut-offs in other NCI protocols can differ. Schedule codes are those of the source, taken here to give the interval after Q, in days (D) or hours (H), and the number of doses after X.",
  "data": [
    {"smiles": "NCCN(CCCl)CCCl", "values": [
      {"measurement": "T/C", "setting": "dose: 0.54 mg/kg/injection", "value": "112 % of control"},
      {"measurement": "T/C", "setting": "dose: 0.9 mg/kg/injection", "value": "158 % of control"},
      {"measurement": "T/C", "setting": "dose: 1.5 mg/kg/injection", "value": "251 % of control"}
    ]}
  ]
}
